# From publication PMC3572085
# Sequences of proteins named here, by UniProt entry; tags and fusion partners are left off. A change or cut given only in a name is not applied to a line headed by its entry.
# UniProt P97784: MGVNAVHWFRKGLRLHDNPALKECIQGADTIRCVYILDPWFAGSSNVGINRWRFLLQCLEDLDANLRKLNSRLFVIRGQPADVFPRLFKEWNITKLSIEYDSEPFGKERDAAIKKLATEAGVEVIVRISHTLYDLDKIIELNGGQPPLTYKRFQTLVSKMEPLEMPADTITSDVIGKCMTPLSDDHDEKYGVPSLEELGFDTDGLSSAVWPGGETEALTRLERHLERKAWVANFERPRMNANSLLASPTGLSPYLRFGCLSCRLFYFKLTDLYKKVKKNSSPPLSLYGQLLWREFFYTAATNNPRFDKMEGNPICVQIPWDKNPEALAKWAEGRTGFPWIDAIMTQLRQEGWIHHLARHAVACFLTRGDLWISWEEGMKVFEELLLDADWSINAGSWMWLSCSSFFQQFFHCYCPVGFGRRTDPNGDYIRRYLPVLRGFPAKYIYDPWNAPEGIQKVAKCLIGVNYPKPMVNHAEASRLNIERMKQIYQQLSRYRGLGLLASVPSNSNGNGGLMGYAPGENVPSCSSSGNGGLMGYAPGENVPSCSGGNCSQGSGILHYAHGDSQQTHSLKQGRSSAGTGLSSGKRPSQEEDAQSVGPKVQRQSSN
# These are yes or no findings as the source states them, for the method shown. In cells and extracts the contact can be indirect. For part of these data: Binding calls can cover weak binding; strength is not graded here. Sequences can lack the tags named with a protein.
# Key:
# [1] = molecular target: T1, l-TIM-V5, C-terminally V5 tagged full length mouse TIMELESS, TIM(1–1198)-V5 (mouse) (UniProt Q9R1X4); assay: co-IP; COS7 transiently co-expressing l-TIM-V5 and HA-CRY1 (wild type or mutant); IP anti-V5, blot anti-HA
# T1 sequence: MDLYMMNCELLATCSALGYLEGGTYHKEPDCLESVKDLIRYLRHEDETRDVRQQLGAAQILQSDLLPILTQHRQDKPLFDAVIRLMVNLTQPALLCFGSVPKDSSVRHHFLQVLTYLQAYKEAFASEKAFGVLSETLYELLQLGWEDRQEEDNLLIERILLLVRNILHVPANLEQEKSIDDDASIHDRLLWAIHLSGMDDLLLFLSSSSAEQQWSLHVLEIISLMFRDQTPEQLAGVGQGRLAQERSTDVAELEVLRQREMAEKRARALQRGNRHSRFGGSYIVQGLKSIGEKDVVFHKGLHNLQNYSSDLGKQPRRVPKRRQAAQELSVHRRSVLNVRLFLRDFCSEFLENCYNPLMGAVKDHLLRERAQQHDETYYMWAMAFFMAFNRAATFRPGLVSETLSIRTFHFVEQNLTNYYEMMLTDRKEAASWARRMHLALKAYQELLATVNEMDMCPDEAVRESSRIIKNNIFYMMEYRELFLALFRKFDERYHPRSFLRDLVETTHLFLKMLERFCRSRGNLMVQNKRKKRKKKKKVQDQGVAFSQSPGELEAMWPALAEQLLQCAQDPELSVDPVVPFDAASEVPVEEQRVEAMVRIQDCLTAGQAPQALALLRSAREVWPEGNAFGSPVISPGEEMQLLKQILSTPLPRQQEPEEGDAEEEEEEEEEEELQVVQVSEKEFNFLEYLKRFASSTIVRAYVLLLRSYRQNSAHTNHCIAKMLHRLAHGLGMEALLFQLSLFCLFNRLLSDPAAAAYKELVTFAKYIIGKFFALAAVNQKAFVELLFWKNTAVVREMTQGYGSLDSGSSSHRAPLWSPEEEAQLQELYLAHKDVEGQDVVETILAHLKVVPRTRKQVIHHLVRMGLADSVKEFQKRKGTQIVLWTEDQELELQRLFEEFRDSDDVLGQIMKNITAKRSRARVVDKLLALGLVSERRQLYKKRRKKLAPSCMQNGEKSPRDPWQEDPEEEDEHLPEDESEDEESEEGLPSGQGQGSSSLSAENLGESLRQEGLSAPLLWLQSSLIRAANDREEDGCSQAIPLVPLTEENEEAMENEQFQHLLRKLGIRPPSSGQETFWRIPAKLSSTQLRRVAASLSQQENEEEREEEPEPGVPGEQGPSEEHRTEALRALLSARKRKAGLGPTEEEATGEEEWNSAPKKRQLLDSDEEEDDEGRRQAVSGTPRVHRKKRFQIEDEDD
# [2] = molecular target: T1, l-TIM-V5, C-terminally V5 tagged full length mouse TIMELESS, TIM(1–1198)-V5 (mouse); assay: co-IP; COS7 co-expressing all three of HA-CRY1 (WT or mutNLSc), l-TIM-V5 and PER2-GFP; IP of each with anti-HA, anti-V5 or anti-GFP, blots with the corresponding antibodies
Substance,binding [1],binding [2]
HA-CRY1dCC (CRY1 lacking the C-terminal coiled-coil domain) (from UniProt P97784),no binding,
HA-CRY1mutNLSc (CRY1 with a mutated C-terminal NLS) (from UniProt P97784),binds,no binding (only with co-expressed PER2-GFP)
